# The supplement of paper PMC6411743
# ± gives the standard deviation of the averaged measurements. Only a part is listed here, and it is no random draw.
# Key:
# Experiment in all cases: NP40-soluble protein abundance relative to vehicle (solubility fold change) (ratio); higher = more soluble protein in presence of AMP-PNP
# PREB = target: T1, PREB (UniProt Q9HCU5)
# T1 sequence (whole entry): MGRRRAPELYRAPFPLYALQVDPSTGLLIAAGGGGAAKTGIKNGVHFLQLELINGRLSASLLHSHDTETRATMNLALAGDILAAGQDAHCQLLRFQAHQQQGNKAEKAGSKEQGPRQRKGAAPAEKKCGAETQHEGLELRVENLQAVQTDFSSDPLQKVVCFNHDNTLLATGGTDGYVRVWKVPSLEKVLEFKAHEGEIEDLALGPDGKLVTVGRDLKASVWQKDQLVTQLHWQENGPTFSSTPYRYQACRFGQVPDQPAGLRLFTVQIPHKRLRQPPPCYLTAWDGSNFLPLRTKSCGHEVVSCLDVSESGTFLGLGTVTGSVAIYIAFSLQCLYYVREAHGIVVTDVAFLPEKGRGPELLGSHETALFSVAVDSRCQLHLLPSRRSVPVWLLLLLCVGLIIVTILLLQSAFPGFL
# Summary of the method: (§1)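 Jurkat crude lysate prepared with a Dounce homogeniser was treated at eight concentrations spanning 0.1 to 10 mM, 10 min at room temperature then 3 min at 37 °C. Solubilisation with 0.8% NP40 and benzonase and ultracentrifugation preceded TMT labelling of the supernatant for LC-MS/MS. Fold change against the detergent-processed vehicle was determined per replicate from vsn-normalised intensities, across three independent experiments.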
# PRKRIP1 = target: T2, PRKRIP1 (UniProt Q9H875)
# T2 sequence (whole entry): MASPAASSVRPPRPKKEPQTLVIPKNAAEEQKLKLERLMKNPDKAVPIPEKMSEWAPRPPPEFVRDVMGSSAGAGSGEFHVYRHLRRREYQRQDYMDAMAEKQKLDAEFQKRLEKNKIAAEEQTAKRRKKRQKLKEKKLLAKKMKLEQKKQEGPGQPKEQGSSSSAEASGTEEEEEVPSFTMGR
# Summary of the method: as §1
# RAB3GAP2 = target: T3, RAB3GAP2 (UniProt Q9H2M9)
# T3 sequence (whole entry): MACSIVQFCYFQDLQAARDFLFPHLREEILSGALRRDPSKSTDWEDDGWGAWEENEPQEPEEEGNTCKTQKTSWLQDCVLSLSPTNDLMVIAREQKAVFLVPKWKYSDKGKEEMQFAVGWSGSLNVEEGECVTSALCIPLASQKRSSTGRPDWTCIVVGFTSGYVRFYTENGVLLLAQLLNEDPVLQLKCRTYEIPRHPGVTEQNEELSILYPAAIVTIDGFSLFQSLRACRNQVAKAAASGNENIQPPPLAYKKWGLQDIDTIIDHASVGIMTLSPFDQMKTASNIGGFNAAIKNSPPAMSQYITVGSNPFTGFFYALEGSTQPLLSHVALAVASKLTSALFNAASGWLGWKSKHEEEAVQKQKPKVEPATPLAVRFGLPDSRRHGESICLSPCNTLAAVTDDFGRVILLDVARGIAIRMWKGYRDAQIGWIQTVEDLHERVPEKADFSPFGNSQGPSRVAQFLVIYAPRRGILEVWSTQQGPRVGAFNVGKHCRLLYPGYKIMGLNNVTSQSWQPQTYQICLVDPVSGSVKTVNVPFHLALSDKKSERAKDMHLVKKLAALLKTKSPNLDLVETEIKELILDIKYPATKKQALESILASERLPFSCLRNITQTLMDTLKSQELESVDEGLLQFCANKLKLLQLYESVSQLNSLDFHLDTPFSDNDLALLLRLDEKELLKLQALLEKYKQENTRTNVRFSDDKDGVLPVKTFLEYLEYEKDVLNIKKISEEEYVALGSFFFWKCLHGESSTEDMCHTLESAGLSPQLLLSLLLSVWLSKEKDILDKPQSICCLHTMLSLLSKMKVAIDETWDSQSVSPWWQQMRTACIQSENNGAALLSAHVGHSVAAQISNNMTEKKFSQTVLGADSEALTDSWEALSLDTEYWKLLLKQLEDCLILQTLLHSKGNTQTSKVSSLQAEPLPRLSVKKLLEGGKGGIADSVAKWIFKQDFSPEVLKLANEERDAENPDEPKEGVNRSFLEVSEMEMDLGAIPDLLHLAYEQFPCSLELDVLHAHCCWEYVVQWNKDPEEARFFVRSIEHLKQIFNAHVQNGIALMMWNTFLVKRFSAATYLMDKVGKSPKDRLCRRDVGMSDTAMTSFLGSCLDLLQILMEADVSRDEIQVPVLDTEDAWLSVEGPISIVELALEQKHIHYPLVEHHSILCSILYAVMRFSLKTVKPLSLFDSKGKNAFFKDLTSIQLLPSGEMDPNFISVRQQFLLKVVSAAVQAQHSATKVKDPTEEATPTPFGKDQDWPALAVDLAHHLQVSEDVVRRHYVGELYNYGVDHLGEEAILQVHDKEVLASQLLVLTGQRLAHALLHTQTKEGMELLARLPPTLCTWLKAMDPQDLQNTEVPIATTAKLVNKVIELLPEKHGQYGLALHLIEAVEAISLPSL
# Summary of the method: as §1
# SMYD3 = target: T4, SMYD3 (UniProt Q9H7B4)
# T4 sequence (whole entry): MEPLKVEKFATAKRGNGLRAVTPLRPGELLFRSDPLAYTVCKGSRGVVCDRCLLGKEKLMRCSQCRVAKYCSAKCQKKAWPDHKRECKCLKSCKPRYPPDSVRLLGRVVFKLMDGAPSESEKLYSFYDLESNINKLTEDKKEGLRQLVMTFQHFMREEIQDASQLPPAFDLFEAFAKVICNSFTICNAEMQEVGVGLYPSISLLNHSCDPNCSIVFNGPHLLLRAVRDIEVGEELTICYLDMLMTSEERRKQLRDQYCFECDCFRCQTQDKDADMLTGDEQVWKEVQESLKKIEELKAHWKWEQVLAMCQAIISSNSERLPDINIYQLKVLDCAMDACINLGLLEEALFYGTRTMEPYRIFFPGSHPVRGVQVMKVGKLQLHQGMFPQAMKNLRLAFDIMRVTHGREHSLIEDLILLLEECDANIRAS
# Summary of the method: as §1
# UniProt Q9H078-2 = target: T5, UniProt Q9H078-2
# T5 sequence (whole entry): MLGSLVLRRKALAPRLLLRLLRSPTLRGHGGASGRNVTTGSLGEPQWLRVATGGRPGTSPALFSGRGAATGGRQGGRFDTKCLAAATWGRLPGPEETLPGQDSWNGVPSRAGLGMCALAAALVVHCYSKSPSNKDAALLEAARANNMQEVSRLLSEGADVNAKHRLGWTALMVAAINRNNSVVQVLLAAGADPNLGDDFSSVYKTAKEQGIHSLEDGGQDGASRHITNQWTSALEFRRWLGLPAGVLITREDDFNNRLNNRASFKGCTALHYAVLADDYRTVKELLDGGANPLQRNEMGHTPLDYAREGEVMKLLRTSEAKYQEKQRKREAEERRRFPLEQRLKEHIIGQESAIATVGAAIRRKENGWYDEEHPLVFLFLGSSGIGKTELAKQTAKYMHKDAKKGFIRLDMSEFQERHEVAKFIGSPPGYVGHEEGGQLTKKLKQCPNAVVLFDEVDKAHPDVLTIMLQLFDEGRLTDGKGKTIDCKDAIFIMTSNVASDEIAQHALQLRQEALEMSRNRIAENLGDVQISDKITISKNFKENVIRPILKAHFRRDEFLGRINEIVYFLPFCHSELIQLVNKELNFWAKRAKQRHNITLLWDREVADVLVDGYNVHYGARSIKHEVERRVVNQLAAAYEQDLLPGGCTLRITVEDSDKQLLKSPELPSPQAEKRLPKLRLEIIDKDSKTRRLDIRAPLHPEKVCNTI
# Summary of the method: as §1
smiles,measurement,setting,value
Nc1ncnc2c1ncn2[C@@H]1O[C@H](COP(=O)(O)OP(=O)(O)NP(=O)(O)O)[C@@H](O)[C@H]1O [adenylyl imidodiphosphate],NP40-soluble protein abundance,PREB; concentration: 1mM,1.03 ± 0.028
same,NP40-soluble protein abundance,PREB; concentration: 2mM,1.18 ± 0.23
same,NP40-soluble protein abundance,PREB; concentration: 4mM,1.04 ± 0.073
same,NP40-soluble protein abundance,PREB; concentration: 6mM,1 ± 0.066
same,NP40-soluble protein abundance,PREB; concentration: 8mM,1.01 ± 0.065
same,NP40-soluble protein abundance,PREB; concentration: 10mM,1.02 ± 0.098
same,NP40-soluble protein abundance,PRKRIP1; concentration: 1mM,1.03 ± 0.053
same,NP40-soluble protein abundance,PRKRIP1; concentration: 2mM,1.14 ± 0.12
same,NP40-soluble protein abundance,PRKRIP1; concentration: 4mM,1.1 ± 0.11
same,NP40-soluble protein abundance,PRKRIP1; concentration: 6mM,1.14 ± 0.073
same,NP40-soluble protein abundance,PRKRIP1; concentration: 8mM,1.16 ± 0.1
same,NP40-soluble protein abundance,PRKRIP1; concentration: 10mM,1.15 ± 0.15
same,NP40-soluble protein abundance,RAB3GAP2; concentration: 1mM,0.992 ± 0.021
same,NP40-soluble protein abundance,RAB3GAP2; concentration: 2mM,0.928 ± 0.073
same,NP40-soluble protein abundance,RAB3GAP2; concentration: 4mM,0.97 ± 0.012
same,NP40-soluble protein abundance,RAB3GAP2; concentration: 6mM,0.933 ± 0.018
same,NP40-soluble protein abundance,RAB3GAP2; concentration: 8mM,0.9368 ± 0.0065
same,NP40-soluble protein abundance,RAB3GAP2; concentration: 10mM,0.9065 ± 0.0063
same,NP40-soluble protein abundance,SMYD3; concentration: 1mM,0.97 ± 0.051
same,NP40-soluble protein abundance,SMYD3; concentration: 2mM,0.923 ± 0.03
same,NP40-soluble protein abundance,SMYD3; concentration: 4mM,0.935 ± 0.045
same,NP40-soluble protein abundance,SMYD3; concentration: 6mM,0.872 ± 0.021
same,NP40-soluble protein abundance,SMYD3; concentration: 8mM,0.8724 ± 0.0033
same,NP40-soluble protein abundance,SMYD3; concentration: 10mM,0.829 ± 0.02
same,NP40-soluble protein abundance,UniProt Q9H078-2; concentration: 1mM,0.999 ± 0.04
same,NP40-soluble protein abundance,UniProt Q9H078-2; concentration: 2mM,0.962 ± 0.056
same,NP40-soluble protein abundance,UniProt Q9H078-2; concentration: 4mM,1.01 ± 0.061
same,NP40-soluble protein abundance,UniProt Q9H078-2; concentration: 6mM,1 ± 0.058
same,NP40-soluble protein abundance,UniProt Q9H078-2; concentration: 8mM,0.992 ± 0.036
same,NP40-soluble protein abundance,UniProt Q9H078-2; concentration: 10mM,0.997 ± 0.063

# Two consecutive entries out of the list so far, quoted:
smiles,measurement,setting,value
Nc1ncnc2c1ncn2[C@@H]1O[C@H](COP(=O)(O)OP(=O)(O)NP(=O)(O)O)[C@@H](O)[C@H]1O [adenylyl imidodiphosphate],NP40-soluble protein abundance,UniProt Q9H078-2; concentration: 8mM,0.992 ± 0.036
same,NP40-soluble protein abundance,UniProt Q9H078-2; concentration: 10mM,0.997 ± 0.063
